Test results published in publication PMC11306434.
No constants are given. Whether binding was seen depends on the method and setting. In cells and extracts the contact can be indirect. Some binding calls cover weakened binding; strength is not graded here.

The chains behind the UniProt entries cited, without tags or fusion partners. Residues count along the entry.
UniProt Q9NXA8, residues 37-310: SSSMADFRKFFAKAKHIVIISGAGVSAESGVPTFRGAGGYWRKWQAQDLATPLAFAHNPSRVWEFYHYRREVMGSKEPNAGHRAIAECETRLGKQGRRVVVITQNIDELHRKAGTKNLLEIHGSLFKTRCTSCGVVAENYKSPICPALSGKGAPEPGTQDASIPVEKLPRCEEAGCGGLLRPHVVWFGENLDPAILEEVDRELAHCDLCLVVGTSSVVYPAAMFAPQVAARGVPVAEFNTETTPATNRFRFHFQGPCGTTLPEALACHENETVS

Target: Flag-SIRT5 (UniProt Q9NXA8)
Experiment: co-IP; 293T cells co-transfected with Flag-SIRT5 and HA-p53; lysate (200 ug protein, IP lysis buffer with protease and phosphatase inhibitors) with anti-Flag or anti-HA antibody at 4 C for 4 h, protein A/G Sepharose beads, Western blot

binding: binds
Substance: HA-p53 (from UniProt P04637 1-393)
